Measurements reported in PubChem BioAssay AID1259264 (Sanger Institute, 2017)
The whole screen tested 794 reagents; shown is a random part of them. Over the whole deposit, 15 (1.9%) were called active. 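Calls rest on knock-down alone at z-score below -3; synergy scores with the three drugs do not decide them.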 No viability above 1 is reported: the scale is capped. Not stated in the record: the amount of reagent, the time to read-out.

- Test: 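Kinases whose loss cuts CL40 colorectal cancer cell survival, alone or with drugs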 (primary screen)
- Cell system: CL40 human colorectal cancer cells
- Knock-down reagent: siRNA pool against human genes
- Treatment: DMSO, or an anchor drug: BYL719 at 1 µM, cetuximab at 5 µg/ml, or trametinib at 10 nM
- Measured: 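Replicate-mean viability versus a non-targeting pool, robust z-score from control wells, and mean synergy with BYL719 1 µM, cetuximab 5 µg/ml or trametinib 10 nM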
- Direction: robust z-score, siRNA alone and viability, siRNA alone: higher = more viable cells; synergy score with BYL719: higher = stronger combined killing with BYL719; synergy score with cetuximab: higher = stronger combined killing with cetuximab; synergy score with trametinib: higher = stronger combined killing with trametinib
- Call rule: 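a gene counts as essential when knock-down without drug gives a robust z-score below -3, meaning fewer cells; synergy scores play no part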
- Calls: active = essential (lowers viability alone); inactive = not essential

gene symbol | robust z-score, siRNA alone | viability, siRNA alone (fraction of control) | synergy score with BYL719 | synergy score with cetuximab | synergy score with trametinib | Call
STK10 (GeneID 6793) | 0.539 | 1 | -0.107 | -0.0174 | 0.123 | inactive
PRKG1 (GeneID 5592) | 0.539 | 1 | -0.104 | -0.0174 | 0.1 | inactive
JAK3 (GeneID 3718) | 0.539 | 1 | -0.151 | -0.0174 | 0.111 | inactive
PRKDC (GeneID 5591) | -1.35 | 0.865 | -0.174 | -0.133 | 0.029 | inactive
STK33 (GeneID 65975) | 0.539 | 1 | 0.0221 | 0.00801 | 0.0844 | inactive
PSTK (GeneID 118672) | -1.84 | 0.829 | -0.191 | -0.0961 | -0.00907 | inactive
SYNCRIP (GeneID 10492) | -0.0131 | 0.96 | 0.0754 | -0.0134 | 0.0888 | inactive
CKMT1B (GeneID 1159) | -2.84 | 0.758 | -0.319 | -0.251 | -0.0132 | inactive
CDK6 (GeneID 1021) | -0.421 | 0.931 | -0.109 | -0.085 | 0.121 | inactive
DLG2 (GeneID 1740) | 0.539 | 1 | -0.111 | -0.0174 | 0.0252 | inactive
PDK1 (GeneID 5163) | 0.0561 | 0.965 | 0.0244 | 0.0145 | 0.035 | inactive
TSKS (GeneID 60385) | 0.539 | 1 | -0.0369 | -0.0174 | 0.0517 | inactive
NRK (GeneID 203447) | 0.539 | 1 | -0.07 | -0.0174 | 0.115 | inactive
AKT3 (GeneID 10000) | 0.539 | 1 | -0.102 | -0.0174 | 0.0827 | inactive
MAPK8 (GeneID 5599) | 0.134 | 0.971 | -0.154 | -0.046 | 0.12 | inactive
RBKS (GeneID 64080) | 0.539 | 1 | -0.104 | -0.0174 | 0.0555 | inactive
PINK1 (GeneID 65018) | 0.539 | 1 | -0.12 | 0.0215 | 0.119 | inactive
CDK15 (GeneID 65061) | 0.508 | 0.998 | -0.108 | -0.0196 | 0.103 | inactive
HASPIN (GeneID 83903) | -0.741 | 0.908 | -0.0319 | -0.0407 | 0.112 | inactive
GUCY2C (GeneID 2984) | 0.273 | 0.981 | -0.126 | -0.0362 | 0.11 | inactive
